# Results taken from patent US7338807.
# Amino acid sequences for entries named in this document (tags omitted). A change or cut given only in a name is not applied to a line headed by its entry.
# UniProt P19447: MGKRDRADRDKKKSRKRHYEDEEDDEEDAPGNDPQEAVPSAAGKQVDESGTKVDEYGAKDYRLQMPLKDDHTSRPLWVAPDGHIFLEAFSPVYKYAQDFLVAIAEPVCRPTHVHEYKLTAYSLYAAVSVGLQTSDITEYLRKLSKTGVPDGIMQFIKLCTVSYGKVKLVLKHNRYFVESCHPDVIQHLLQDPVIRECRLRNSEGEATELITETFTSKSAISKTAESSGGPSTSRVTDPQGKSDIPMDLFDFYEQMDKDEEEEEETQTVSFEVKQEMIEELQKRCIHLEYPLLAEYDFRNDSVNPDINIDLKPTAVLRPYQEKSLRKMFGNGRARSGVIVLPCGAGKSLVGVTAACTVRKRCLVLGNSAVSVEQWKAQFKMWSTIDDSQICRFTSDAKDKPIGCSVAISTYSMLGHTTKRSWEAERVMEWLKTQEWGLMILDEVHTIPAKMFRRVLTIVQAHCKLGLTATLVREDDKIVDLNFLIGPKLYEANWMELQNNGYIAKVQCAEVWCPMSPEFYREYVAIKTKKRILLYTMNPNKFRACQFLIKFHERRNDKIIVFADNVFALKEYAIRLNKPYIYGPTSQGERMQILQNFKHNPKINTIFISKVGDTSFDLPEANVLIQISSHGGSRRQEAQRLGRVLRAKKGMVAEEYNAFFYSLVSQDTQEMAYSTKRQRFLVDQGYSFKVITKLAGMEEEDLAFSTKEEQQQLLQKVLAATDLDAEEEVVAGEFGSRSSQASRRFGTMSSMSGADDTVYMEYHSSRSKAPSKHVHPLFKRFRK
# No constants are given. Whether binding was seen depends on the method and setting. In cells and extracts the contact can be indirect. Some binding calls cover weakened binding; strength is not graded here.
# Key:
# [1] = target: XPB protein, full length, in vitro-translated, 35S-labelled (human) (UniProt P19447); assay: competition pull-down, FIG. 4
# [2] = target: XPB protein, full length, in vitro-translated, 35S-labelled (human) (UniProt P19447); assay: competition pull-down; peptide pre-incubated with GST-p53-WT beads (85 and 424 nM)
# [3] = target: GST-p53-WT (glutathione S-transferase fused to human wild type p53) (human) (UniProt P04637); assay: competition pull-down, FIG. 4
# [4] = target: GST-p53-WT (glutathione S-transferase fused to human wild type p53) (human) (UniProt P04637); assay: competition pull-down; peptide pre-incubated with GST-p53-WT beads (12, 120, 596 nM)
binding [1],binding [2],binding [3],binding [4],Binder
binds,binds,,,SHLKSKKGQSTSRHKKLMFKT [Peptide #p53cp (residues 367 to 387 of p53)]
,,binds,binds,LGLTATLVREDDKIV [Peptide #464 (residues 464 to 478 of XPB)]
